Further values from the same series stand in other lists.
Legend:
Type in all cases: cell-based
Conditions in all cases: U-87MG ATCC
[1] = Inhibition of RTK/PI3K/AKT/mTOR signaling in human U87 cells assessed as down regulation of TTLL3 gene expression at cytotoxic IC50 measured after 48 hrs relative to control
[2] = Inhibition of RTK/PI3K/AKT/mTOR signaling in human U87 cells assessed as up regulation of myosin phosphatase Rho interacting protein gene expression at cytotoxic IC50 measured after 48 hrs relative to control
[3] = Inhibition of RTK/PI3K/AKT/mTOR signaling in human U87 cells assessed as down regulation of NSRP1 gene expression at cytotoxic IC50 measured after 48 hrs relative to control
[4] = Inhibition of RTK/PI3K/AKT/mTOR signaling in human U87 cells assessed as down regulation of TBX3 gene expression at cytotoxic IC50 measured after 48 hrs relative to control
[5] = Inhibition of RTK/PI3K/AKT/mTOR signaling in human U87 cells assessed as down regulation of RTFDC1 gene expression at cytotoxic IC50 measured after 48 hrs relative to control
[6] = Inhibition of RTK/PI3K/AKT/mTOR signaling in human U87 cells assessed as down regulation of WDR76 gene expression at cytotoxic IC50 measured after 48 hrs relative to control
[7] = Inhibition of RTK/PI3K/AKT/mTOR signaling in human U87 cells assessed as up regulation of SH2D3A gene expression at cytotoxic IC50 measured after 48 hrs relative to control
[8] = Inhibition of RTK/PI3K/AKT/mTOR signaling in human U87 cells assessed as down regulation of LMO4 gene expression at cytotoxic IC50 measured after 48 hrs relative to control
[9] = Inhibition of RTK/PI3K/AKT/mTOR signaling in human U87 cells assessed as down regulation of CYP4F11 gene expression at cytotoxic IC50 measured after 48 hrs relative to control
[10] = Inhibition of RTK/PI3K/AKT/mTOR signaling in human U87 cells assessed as up regulation of DNA damage inducible transcript 4 gene expression at cytotoxic IC50 measured after 48 hrs relative to control
[11] = Inhibition of RTK/PI3K/AKT/mTOR signaling in human U87 cells assessed as down regulation of ASB8 gene expression at cytotoxic IC50 measured after 48 hrs relative to control
[12] = Inhibition of RTK/PI3K/AKT/mTOR signaling in human U87 cells assessed as up regulation of URI1 gene expression at cytotoxic IC50 measured after 48 hrs relative to control
[13] = Inhibition of RTK/PI3K/AKT/mTOR signaling in human U87 cells assessed as up regulation of zinc finger protein 444 gene expression at cytotoxic IC50 measured after 48 hrs relative to control
[14] = Inhibition of RTK/PI3K/AKT/mTOR signaling in human U87 cells assessed as up regulation of protein tyrosine phosphatase, receptor type S gene expression at cytotoxic IC50 measured after 48 hrs relative to control
[15] = Inhibition of RTK/PI3K/AKT/mTOR signaling in human U87 cells assessed as down regulation of HRH1 gene expression at cytotoxic IC50 measured after 48 hrs relative to control
[16] = Inhibition of RTK/PI3K/AKT/mTOR signaling in human U87 cells assessed as up regulation of JNK1/MAPK8-associated membrane protein gene expression at cytotoxic IC50 measured after 48 hrs relative to control
[17] = Inhibition of RTK/PI3K/AKT/mTOR signaling in human U87 cells assessed as up regulation of TNF alpha induced protein 2 gene expression at cytotoxic IC50 measured after 48 hrs relative to control
[18] = Inhibition of RTK/PI3K/AKT/mTOR signaling in human U87 cells assessed as up regulation of PGM1 gene expression at cytotoxic IC50 measured after 48 hrs relative to control
[19] = Inhibition of RTK/PI3K/AKT/mTOR signaling in human U87 cells assessed as down regulation of GNPDA1 gene expression at cytotoxic IC50 measured after 48 hrs relative to control
[20] = Inhibition of RTK/PI3K/AKT/mTOR signaling in human U87 cells assessed as down regulation of AHCYL2 gene expression at cytotoxic IC50 measured after 48 hrs relative to control
[21] = Inhibition of RTK/PI3K/AKT/mTOR signaling in human U87 cells assessed as down regulation of TUBB6 gene expression at cytotoxic IC50 measured after 48 hrs relative to control
[22] = Inhibition of RTK/PI3K/AKT/mTOR signaling in human U87 cells assessed as down regulation of ELMO2 gene expression at cytotoxic IC50 measured after 48 hrs relative to control
[23] = Inhibition of RTK/PI3K/AKT/mTOR signaling in human U87 cells assessed as down regulation of ODF2 gene expression at cytotoxic IC50 measured after 48 hrs relative to control
[24] = Inhibition of RTK/PI3K/AKT/mTOR signaling in human U87 cells assessed as up regulation of oxysterol binding protein like 3 gene expression at cytotoxic IC50 measured after 48 hrs relative to control
[25] = Inhibition of RTK/PI3K/AKT/mTOR signaling in human U87 cells assessed as down regulation of B4GALT5 gene expression at cytotoxic IC50 measured after 48 hrs relative to control
[26] = Inhibition of RTK/PI3K/AKT/mTOR signaling in human U87 cells assessed as up regulation of apurinic/apyrimidinic endodeoxyribonuclease 1 gene expression at cytotoxic IC50 measured after 48 hrs relative to control
[27] = Inhibition of RTK/PI3K/AKT/mTOR signaling in human U87 cells assessed as down regulation of UBC gene expression at cytotoxic IC50 measured after 48 hrs relative to control
[28] = Inhibition of RTK/PI3K/AKT/mTOR signaling in human U87 cells assessed as up regulation of RAB11 family interacting protein 2 gene expression at cytotoxic IC50 measured after 48 hrs relative to control
[29] = Inhibition of RTK/PI3K/AKT/mTOR signaling in human U87 cells assessed as up regulation of nuclear factor, erythroid 2 like 3 gene expression at cytotoxic IC50 measured after 48 hrs relative to control
[30] = Inhibition of RTK/PI3K/AKT/mTOR signaling in human U87 cells assessed as up regulation of NADH dehydrogenase, subunit 1 (complex I) gene expression at cytotoxic IC50 measured after 48 hrs relative to control
[31] = Inhibition of RTK/PI3K/AKT/mTOR signaling in human U87 cells assessed as down regulation of GDAP1 gene expression at cytotoxic IC50 measured after 48 hrs relative to control
[32] = Inhibition of RTK/PI3K/AKT/mTOR signaling in human U87 cells assessed as up regulation of Ras association domain family member 7 gene expression at cytotoxic IC50 measured after 48 hrs relative to control

Structure (SMILES): CC(=O)C(=NNc1ccccc1C#N)C(C)=O
- log2FC [1]: -1.05
- log2FC [2]: 1.14
- log2FC [3]: -0.619
- log2FC [4]: -2.35
- log2FC [5]: -0.521
- log2FC [6]: -1.08
- log2FC [7]: 0.548
- log2FC [8]: -0.73
- log2FC [9]: -1.38
- log2FC [10]: 0.822
- log2FC [11]: -0.872
- log2FC [12]: 0.639
- log2FC [13]: 1.29
- log2FC [14]: 0.658
- log2FC [15]: -1.1
- log2FC [16]: 0.869
- log2FC [17]: 1.21
- log2FC [18]: 0.542
- log2FC [19]: -0.61
- log2FC [20]: -0.695
- log2FC [21]: -0.73
- log2FC [22]: -0.652
- log2FC [23]: -0.685
- log2FC [24]: 1.02
- log2FC [25]: -0.574
- log2FC [26]: 0.908
- log2FC [27]: -0.323
- log2FC [28]: 0.76
- log2FC [29]: 1.2
- log2FC [30]: 0.975
- log2FC [31]: -1.16
- log2FC [32]: 1.05

Source: ChEMBL document CHEMBL4316593 (Eur J Med Chem, 2019)
